From article PMC8193866

Protein sequences, listed by entry. Tags and fused reporters are not part of them. Lines headed by an entry give the natural chain unless they say otherwise; changes in a name come on top.
UniProt Q9M099: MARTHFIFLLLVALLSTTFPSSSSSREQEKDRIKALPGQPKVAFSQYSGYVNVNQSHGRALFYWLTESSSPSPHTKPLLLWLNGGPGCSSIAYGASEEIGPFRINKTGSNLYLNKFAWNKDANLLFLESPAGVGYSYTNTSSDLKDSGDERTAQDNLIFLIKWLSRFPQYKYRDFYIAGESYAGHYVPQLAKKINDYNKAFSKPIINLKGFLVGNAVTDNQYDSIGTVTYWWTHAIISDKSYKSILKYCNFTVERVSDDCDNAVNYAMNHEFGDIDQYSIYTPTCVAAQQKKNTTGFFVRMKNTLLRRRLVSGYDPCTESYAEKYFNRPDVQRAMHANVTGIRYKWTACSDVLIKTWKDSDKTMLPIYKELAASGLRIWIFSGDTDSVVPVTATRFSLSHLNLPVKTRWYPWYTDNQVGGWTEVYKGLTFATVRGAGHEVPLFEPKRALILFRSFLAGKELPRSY
UniProt Q9SRZ6: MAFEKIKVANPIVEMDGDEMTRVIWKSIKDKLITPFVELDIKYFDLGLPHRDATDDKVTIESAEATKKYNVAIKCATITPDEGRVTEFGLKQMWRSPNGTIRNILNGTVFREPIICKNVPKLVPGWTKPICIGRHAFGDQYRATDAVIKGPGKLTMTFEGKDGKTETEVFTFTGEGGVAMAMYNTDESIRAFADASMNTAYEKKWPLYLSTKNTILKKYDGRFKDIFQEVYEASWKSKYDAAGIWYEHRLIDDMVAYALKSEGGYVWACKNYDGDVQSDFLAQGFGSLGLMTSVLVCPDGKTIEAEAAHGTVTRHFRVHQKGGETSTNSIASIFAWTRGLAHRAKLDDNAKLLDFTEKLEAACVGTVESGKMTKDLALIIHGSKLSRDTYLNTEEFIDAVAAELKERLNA

Target: BRS1-GFP (Arabidopsis) (UniProt Q9M099)
Experiment: pull-down; BRS1-GFP pull-down, proteins identified listed in Table S2; no methods given

binding: no binding
Substance: cytosolic NADP+-dependent isocitrate dehydrogenase (cICDH), as looked for in the BRS1-GFP pull-down (from UniProt Q9SRZ6 1-410) (enzyme)

Results are given in words; binding and its absence hold for the method and conditions named. Binding seen in cells or lysates may run through a third protein.
